Data published in PMC5384001 (Scientific Reports, 2017).
No constants are given. Whether binding was seen depends on the method and setting. Values belong to the molecule of their own block, whether it stands above or below them.

Columns and labels:
Assay in all cases: SEC; size-exclusion chromatography of the purified soluble LBDs, each run alone; column and buffer not told (Supplementary Fig. S8); both purified
[1] = target: wild-type GluN1 ligand-binding domain (GluN1-LBD), soluble S1-GT-S2 construct (UniProt P35439)
[2] = target: wild-type rat GluD2 ligand-binding domain (GluD2-LBD), soluble S1-GT-S2 construct (rat) (UniProt Q63226)
[3] = target: GluD2-LBD-(H)GluN1, GluD2 ligand-binding domain with the D1-D2 hinge region (HS1 and HS2) of GluN1 (rat) (UniProt Q63226)

- binding [1]: no binding
Molecule: wild-type GluN1 ligand-binding domain (GluN1-LBD), soluble S1-GT-S2 construct (from UniProt P35439 394-544; P35439 663-800) (domain or fragment)

- binding [2]: no binding
B1: wild-type rat GluD2 ligand-binding domain (GluD2-LBD), soluble S1-GT-S2 construct (domain or fragment, UniProt Q63226 440-551; Q63226 664-813)
chain: GGVVLRVVTVLEEPFVMVSENVLGKPKKYQGFSIDVLDALSNYLGFNYEIYVAPDHKYGSPQEDGTWNGLVGELVFKRADIGISALTITPDRENVVDFTTRYMDYSVGVLLRRGTSIQSLQDLSKQTDIPYGTVLDSAVYQHVRMKGLNPFERDSMYSQMWRMINRSNGSENNVLESQAGIQKVKYGNYAFVWDAAVLEYVAINDPDCSFYTVGNTVADRGYGIALQHGSPYRDVFSQRILELQQSGDMDILKHKWWPKNGQCDL

- binding [3]: no binding
B2: GluD2-LBD-(H)GluN1, GluD2 ligand-binding domain with the D1-D2 hinge region (HS1 and HS2) of GluN1 (domain or fragment, UniProt Q63226 440-551; Q63226 664-813)
chain: GGVVLRVVTVLEEPFVMVSENVLGKPKKYQGFSIDVLDALSNYLGFNYEIYVAPDHKYGSPQEDGTWNGLVGELVFKRADIGISALTITPDRENVVDFTTRYMYQGVGVLLRRGTSIQSLQDLSKQTDIPYGTVLDSAVYQHVRMKGLNPFERDSMYSQMWRMINRSNGSENNVLESQAGIQKVKYGNYAFVWDAAVLEYVAINDPDCSFYTTGELFFRSGYGIALQHGSPYRDVFSQRILELQQSGDMDILKHKWWPKNGQCDL
